Reference: the supplement of paper PMC12067093, “Discovery and optimisation of a covalent ligand for TRIM25 and its application to targeted protein ubiquitination” (Chemical Science, 2025)
The list shows a part of the results.

Protein sequences, listed by entry. Tags and fused reporters are not part of them. Lines headed by an entry give the natural chain unless they say otherwise; changes in a name come on top.
UniProt Q99497, whole entry, looked up: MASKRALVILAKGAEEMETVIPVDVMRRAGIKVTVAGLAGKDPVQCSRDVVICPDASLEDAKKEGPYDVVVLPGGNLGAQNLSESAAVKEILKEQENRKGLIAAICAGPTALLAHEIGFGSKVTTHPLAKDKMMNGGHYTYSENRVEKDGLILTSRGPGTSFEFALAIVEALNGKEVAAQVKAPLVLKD
UniProt Q460N5, whole entry, looked up: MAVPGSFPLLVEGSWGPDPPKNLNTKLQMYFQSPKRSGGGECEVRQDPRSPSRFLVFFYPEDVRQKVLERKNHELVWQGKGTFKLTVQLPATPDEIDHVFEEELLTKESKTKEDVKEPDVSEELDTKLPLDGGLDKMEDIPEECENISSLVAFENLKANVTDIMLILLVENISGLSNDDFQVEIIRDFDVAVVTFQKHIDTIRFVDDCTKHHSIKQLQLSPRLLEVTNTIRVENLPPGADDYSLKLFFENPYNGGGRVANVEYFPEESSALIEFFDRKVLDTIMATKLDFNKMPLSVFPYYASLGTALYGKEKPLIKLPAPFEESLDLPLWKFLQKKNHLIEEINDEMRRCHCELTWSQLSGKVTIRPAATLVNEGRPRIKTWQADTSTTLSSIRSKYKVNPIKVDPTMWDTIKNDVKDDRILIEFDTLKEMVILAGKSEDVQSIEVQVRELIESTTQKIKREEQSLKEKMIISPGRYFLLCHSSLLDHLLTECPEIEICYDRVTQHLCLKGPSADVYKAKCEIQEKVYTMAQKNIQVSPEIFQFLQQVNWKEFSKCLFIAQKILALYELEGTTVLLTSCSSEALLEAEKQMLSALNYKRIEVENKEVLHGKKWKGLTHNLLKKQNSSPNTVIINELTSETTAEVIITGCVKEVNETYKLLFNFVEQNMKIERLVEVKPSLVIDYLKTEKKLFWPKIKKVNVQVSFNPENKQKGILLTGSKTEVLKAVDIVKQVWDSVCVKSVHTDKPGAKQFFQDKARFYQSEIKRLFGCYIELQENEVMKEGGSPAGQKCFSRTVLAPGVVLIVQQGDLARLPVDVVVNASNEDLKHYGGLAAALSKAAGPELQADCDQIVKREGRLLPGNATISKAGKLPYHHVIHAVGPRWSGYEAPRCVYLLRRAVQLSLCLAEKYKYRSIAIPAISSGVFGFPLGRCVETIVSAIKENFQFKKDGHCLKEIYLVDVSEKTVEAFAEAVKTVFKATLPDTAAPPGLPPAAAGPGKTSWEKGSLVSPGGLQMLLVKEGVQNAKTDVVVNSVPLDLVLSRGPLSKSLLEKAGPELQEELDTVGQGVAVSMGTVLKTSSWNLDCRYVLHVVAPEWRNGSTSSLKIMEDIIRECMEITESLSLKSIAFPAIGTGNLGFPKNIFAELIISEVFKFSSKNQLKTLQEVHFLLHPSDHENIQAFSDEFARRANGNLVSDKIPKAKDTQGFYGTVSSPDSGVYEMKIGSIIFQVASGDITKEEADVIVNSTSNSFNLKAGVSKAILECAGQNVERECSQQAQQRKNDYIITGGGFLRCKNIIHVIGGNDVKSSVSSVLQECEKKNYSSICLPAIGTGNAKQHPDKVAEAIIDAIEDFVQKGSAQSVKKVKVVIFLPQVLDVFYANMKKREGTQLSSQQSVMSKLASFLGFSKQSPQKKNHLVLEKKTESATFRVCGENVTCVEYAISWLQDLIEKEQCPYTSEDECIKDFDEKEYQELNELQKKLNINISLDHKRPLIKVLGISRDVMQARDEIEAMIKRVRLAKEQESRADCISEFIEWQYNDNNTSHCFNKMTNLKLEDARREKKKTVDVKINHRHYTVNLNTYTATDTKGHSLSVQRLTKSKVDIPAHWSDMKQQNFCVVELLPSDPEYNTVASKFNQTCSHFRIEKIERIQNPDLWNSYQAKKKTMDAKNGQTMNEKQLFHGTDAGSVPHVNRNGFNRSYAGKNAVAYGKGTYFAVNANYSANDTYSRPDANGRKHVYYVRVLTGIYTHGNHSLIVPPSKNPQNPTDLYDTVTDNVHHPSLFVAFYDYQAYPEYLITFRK
UniProt Q9UBD5: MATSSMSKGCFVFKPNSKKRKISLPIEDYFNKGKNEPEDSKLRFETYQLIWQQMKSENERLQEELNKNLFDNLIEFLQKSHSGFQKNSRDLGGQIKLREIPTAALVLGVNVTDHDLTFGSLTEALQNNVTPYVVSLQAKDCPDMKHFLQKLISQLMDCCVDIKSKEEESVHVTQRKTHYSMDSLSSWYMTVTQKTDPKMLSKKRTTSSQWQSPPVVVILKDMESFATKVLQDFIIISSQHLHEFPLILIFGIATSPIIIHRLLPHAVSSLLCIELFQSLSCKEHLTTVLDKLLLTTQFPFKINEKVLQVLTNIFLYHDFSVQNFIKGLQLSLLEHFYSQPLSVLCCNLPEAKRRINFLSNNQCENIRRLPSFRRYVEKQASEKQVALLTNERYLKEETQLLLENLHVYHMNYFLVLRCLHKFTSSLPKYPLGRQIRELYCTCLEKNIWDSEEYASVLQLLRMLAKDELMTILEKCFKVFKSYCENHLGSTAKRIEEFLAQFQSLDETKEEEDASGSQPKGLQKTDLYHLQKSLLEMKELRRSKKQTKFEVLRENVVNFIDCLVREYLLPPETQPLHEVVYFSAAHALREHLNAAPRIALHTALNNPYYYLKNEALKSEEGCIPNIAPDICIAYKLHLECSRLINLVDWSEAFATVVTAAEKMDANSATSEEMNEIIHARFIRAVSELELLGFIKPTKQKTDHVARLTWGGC
UniProt Q96BN8, whole entry, looked up: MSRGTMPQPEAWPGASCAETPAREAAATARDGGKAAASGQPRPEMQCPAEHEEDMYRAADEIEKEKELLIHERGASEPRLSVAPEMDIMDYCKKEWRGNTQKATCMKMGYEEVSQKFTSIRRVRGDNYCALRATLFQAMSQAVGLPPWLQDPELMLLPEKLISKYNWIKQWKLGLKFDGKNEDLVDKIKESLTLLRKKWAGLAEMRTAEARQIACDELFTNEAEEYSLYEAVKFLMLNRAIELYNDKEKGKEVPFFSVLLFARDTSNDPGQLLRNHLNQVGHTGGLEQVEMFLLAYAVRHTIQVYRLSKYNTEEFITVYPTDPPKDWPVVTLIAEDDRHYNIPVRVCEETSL
UniProt P22059, whole entry, looked up: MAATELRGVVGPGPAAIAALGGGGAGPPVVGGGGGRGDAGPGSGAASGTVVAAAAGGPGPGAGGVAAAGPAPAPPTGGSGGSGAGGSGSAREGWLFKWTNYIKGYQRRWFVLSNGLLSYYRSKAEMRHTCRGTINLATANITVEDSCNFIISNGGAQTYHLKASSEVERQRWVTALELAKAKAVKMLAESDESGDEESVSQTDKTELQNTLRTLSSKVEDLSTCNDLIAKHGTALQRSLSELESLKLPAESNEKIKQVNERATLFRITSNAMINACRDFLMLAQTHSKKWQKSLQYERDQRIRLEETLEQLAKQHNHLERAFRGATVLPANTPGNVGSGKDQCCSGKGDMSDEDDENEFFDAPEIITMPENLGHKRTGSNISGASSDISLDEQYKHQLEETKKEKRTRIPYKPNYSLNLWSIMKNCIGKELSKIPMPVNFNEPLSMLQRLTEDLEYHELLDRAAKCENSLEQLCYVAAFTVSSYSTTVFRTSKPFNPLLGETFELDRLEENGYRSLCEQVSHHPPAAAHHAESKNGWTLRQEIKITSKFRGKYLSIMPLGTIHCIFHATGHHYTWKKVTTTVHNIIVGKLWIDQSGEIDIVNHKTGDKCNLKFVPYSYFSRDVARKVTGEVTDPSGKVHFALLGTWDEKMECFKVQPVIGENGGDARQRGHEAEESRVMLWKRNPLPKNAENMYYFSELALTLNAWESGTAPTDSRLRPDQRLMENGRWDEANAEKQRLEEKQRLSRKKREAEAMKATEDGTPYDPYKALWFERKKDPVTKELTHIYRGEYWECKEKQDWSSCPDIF
UniProt Q8N573: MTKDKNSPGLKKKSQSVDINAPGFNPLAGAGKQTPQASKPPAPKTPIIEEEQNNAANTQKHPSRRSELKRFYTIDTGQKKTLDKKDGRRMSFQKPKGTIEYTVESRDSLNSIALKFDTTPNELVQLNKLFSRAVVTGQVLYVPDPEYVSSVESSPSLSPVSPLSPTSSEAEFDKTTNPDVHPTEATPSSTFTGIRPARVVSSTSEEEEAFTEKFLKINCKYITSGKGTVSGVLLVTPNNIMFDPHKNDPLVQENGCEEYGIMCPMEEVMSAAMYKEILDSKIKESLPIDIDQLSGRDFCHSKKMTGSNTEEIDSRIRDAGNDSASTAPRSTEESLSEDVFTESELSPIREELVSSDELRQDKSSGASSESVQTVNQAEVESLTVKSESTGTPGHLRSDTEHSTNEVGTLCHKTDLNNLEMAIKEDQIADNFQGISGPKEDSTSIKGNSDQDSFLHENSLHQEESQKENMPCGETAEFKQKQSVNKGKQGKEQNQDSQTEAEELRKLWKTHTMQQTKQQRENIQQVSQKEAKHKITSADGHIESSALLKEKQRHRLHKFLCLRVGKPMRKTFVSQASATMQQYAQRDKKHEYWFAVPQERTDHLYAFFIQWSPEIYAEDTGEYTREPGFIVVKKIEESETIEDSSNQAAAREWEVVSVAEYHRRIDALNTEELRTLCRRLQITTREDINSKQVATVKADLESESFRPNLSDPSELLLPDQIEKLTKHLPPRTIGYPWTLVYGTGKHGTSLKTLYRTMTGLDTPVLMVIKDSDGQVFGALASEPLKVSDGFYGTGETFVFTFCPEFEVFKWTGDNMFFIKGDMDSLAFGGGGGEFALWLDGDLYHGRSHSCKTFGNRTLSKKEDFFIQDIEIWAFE
UniProt Q9Y2J8, whole entry, looked up: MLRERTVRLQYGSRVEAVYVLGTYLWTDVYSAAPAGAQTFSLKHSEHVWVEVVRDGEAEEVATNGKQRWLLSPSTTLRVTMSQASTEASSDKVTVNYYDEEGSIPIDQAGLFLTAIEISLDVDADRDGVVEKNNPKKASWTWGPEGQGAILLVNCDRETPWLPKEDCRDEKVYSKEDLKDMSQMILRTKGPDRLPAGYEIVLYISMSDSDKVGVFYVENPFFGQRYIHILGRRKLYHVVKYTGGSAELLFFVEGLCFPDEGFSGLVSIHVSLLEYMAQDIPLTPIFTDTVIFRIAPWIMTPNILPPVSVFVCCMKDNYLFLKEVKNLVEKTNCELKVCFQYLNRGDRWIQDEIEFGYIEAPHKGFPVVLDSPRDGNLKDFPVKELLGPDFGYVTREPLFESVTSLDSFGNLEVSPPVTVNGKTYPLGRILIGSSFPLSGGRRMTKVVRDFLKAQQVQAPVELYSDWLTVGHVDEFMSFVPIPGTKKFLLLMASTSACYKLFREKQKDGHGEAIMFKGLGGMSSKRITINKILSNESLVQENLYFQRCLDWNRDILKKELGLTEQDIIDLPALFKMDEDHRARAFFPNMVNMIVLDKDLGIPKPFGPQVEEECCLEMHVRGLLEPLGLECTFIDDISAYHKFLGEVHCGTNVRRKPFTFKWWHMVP
UniProt Q9Y5N6: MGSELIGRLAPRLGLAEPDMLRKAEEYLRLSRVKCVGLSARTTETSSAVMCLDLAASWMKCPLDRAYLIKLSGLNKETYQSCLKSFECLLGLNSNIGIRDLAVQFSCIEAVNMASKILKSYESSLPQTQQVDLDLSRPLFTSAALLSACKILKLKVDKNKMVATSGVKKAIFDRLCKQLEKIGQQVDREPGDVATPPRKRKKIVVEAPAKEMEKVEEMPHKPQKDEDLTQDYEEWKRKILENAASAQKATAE
UniProt P07237: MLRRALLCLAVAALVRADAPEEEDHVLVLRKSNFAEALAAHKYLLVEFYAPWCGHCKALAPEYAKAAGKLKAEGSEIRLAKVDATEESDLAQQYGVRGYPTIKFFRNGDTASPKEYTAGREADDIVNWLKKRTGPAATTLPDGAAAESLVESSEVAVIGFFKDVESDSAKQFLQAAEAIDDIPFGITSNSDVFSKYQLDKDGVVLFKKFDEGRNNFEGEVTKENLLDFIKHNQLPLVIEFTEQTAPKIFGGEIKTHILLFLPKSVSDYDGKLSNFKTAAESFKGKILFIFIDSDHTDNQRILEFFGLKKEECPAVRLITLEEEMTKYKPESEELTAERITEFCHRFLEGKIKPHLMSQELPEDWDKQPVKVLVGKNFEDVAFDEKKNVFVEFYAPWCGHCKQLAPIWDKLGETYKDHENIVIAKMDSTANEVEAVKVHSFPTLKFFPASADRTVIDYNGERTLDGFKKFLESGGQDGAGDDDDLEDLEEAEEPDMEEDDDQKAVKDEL
UniProt P22234: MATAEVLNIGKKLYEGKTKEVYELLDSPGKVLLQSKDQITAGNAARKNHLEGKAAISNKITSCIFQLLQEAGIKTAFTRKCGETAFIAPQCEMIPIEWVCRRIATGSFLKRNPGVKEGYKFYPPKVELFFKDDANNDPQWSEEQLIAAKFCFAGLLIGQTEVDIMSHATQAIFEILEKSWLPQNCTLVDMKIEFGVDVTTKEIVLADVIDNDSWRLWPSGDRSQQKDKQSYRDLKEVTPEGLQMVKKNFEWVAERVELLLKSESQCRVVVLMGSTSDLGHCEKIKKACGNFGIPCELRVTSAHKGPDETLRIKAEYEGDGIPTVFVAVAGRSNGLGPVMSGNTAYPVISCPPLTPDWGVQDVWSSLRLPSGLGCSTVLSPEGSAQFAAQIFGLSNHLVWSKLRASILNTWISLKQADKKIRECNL

Compound: CC1Cc2ccccc2N1C(=O)C1CCCN(C1)C(=O)CCl (mixture of isomers) [TRIM25 ligand 11 (diastereomer mixture)]
Test: probe-labelled cysteine peptide fold change vs DMSO (competition) (log2 fold change); higher = less target engagement (more negative = stronger competition)
Conditions: THP-1, incubation time: 4 h
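Also: competitive chemoproteomic profiling in live THP-1 cells with an iodoacetamide desthiobiotin (IA-DTB) probe, comparing probe-labelled peptide intensities in compound-treated cells against DMSO-treated controls.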

Target	probe-labelled cysteine peptide fold change (10 µM)	probe-labelled cysteine peptide fold change (50 µM)
OSBPL1A_Q9BXW6_711_GTITLELLEHNEAYTWTNPTCCVHNIIVGK (UniProt Q9BXW6)	0.129	0.152
OSBPL1A_Q9BXW6_297_STDSCLFFIK (UniProt Q9BXW6)	0.0458	0.151
PARK7_Q99497_53_DVVICPDASLEDAK (UniProt Q99497)	-0.00443	-0.264
PARP14_Q460N5_42_SGGGECEVR (UniProt Q460N5)	-0.126	-0.097
OSBPL1A_Q9BXW6_769_LCALYGK (UniProt Q9BXW6)	-0.000747	-0.00343
PAN3_Q58A45_838_DHLFHQVTEAGAPWIDLSHIISCLNK (UniProt Q58A45)	0.057	0.184
ORC3_Q9UBD5_141_DCPDMK (UniProt Q9UBD5)	0.0222	0.0344
PARP14_Q460N5_351+353_CHCELTWSQLSGK (UniProt Q460N5)	0.0483	0.0107
OPHN1_O60890_11_GHPPLEFSDCYLDSPDFR (UniProt O60890)	0.12	-0.178
PAIP2_Q9BPZ3_60_CFQEMLEEEEEHEWFIPAR (UniProt Q9BPZ3)	-0.237	-0.327
P3H1_Q32P28_670_CAIALWFTLDPR (UniProt Q32P28)	-0.273	-0.233
PAPSS2_O95340_350_VWGTTCTK (UniProt O95340)	-0.00431	-0.0362
ORC3_Q9UBD5_363_INFLSNNQCENIR (UniProt Q9UBD5)	-0.0956	-0.106
OTUD7B_Q6GQQ9_280_MHLGTNGANCGGVESSEEPVYESLEEFHVFVLAHVLR (UniProt Q6GQQ9)	0.293	0.432
PAIP1_Q9H074_358_GKMDMEEIIQRIENVVLDANCSR (UniProt Q9H074)	-0.379	-0.259
OSBPL1A_Q9BXW6_182_TTELTALLNRPNPPDVNCSDQLGNTPLHCAAYR (UniProt Q9BXW6)	-0.0584	-0.0148
OTULIN_Q96BN8_347_VCEETSL (UniProt Q96BN8)	-0.0513	-0.127
OSBP_P22059_803_QDWSSCPDIF (UniProt P22059)	-0.00389	-0.206
OXR1_Q8N573_410_SDTEHSTNEVGTLCHK (UniProt Q8N573)	0.217	0.00313

Some of the entries above, reformatted.
Target | probe-labelled cysteine peptide fold change (10 µM) | probe-labelled cysteine peptide fold change (50 µM)
OSBPL1A_Q9BXW6_182_TTELTALLNRPNPPDVNCSDQLGNTPLHCAAYR (UniProt Q9BXW6) | -0.0584 | -0.0148
OTULIN_Q96BN8_347_VCEETSL (UniProt Q96BN8) | -0.0513 | -0.127
OSBP_P22059_803_QDWSSCPDIF (UniProt P22059) | -0.00389 | -0.206

The listing continues:

Target	probe-labelled cysteine peptide fold change (10 µM)	probe-labelled cysteine peptide fold change (50 µM)
PADI2_Q9Y2J8_612_PFGPQVEEECCLEMHVR (UniProt Q9Y2J8)	-0.0491	0.0649
P3H1_Q32P28_600_KDDSHPVHVDNCILNAETLVCVK (UniProt Q32P28)	0.0447	0.088
ORC3_Q9UBD5_561_ENVVNFIDCLVR (UniProt Q9UBD5)	0.112	0.23
ORC6_Q9Y5N6_88_SFECLLGLNSNIGIR (UniProt Q9Y5N6)	0.0454	0.0144
PA2G4_Q9UQ80_85_GIAFPTSISVNNCVCHFSPLK (UniProt Q9UQ80)	0.00904	-0.193
OSGEPL1_Q9H4B0_216_HPECSTMSGGK (UniProt Q9H4B0)	0.187	0.00379
PAPSS1_O43252_290+295_EREYLQCLHFDCLLDGGVINLSVPIVLTATHEDK (UniProt O43252)	-0.13	0.0777
P4HB_P07237_397+400_KNVFVEFYAPWCGHCK (UniProt P07237)	-0.421	
PADI2_Q9Y2J8_612+613_PFGPQVEEECCLEMHVR (UniProt Q9Y2J8)	-0.0826	-0.202
P4HB_P07237_397+400_NVFVEFYAPWCGHCK (UniProt P07237)	-0.122	-0.34
OSBPL1A_Q9BXW6_387_ECDMAK (UniProt Q9BXW6)	-0.199	-0.186
PALD1_Q9ULE6_65_VAPVVITYNCK (UniProt Q9ULE6)	0.0634	0.16
P4HA1_P13674_503_HAACPVLVGNK (UniProt P13674)	0.108	0.139
PARK7_Q99497_46_VTVAGLAGKDPVQCSR (UniProt Q99497)	-0.13	-0.213
OXR1_Q8N573-2_50_FEDYLREPAQGDLGCGSPPHRPPAPSSPEGPDTGQK (UniProt Q8N573)	0.0482	-0.0597
PAICS_P22234_63_ITSCIFQLLQEAGIK (UniProt P22234)	0.182	-0.306
PAK3_O75914_424_LTDFGFCAQITPEQSK (UniProt O75914)	0.146	0.102
PAICS_P22234_281_VVVLMGSTSDLGHCEK (UniProt P22234)	0.0699	-0.107
PARP14_Q460N5_739_QVWDSVCVK (UniProt Q460N5)	0.116	-0.0561
